# Reference: the supplement of paper PMC6690932
# Several values for one entry are separate records, joined by “and”; a condition that tells them apart may be missing. Equal values may be shown once. Where a name gives a salt, the structure may show the parent alone. ± gives the standard deviation of the averaged measurements. Some of the results follow. Most values come without repeats; read them as rough.
# System: HeLa
# Test: lysosomal-METRIQ red/green fluorescence ratio relative to DMSO (ratio to DMSO); higher = higher lysosomal activity / lysosomal biogenesis
# Settings: 10 µM; 12 h
row,Structure (SMILES),lysosomal-METRIQ red/green fluorescence ratio
1,CNCc1ccc(-c2[nH]c3cc(F)cc4c3c2CCNC4=O)cc1,1
2,CCCCCCCC(=O)OCCOC(=O)CCCCCCC [Dioctanoylglycol],1.04
3,c1ccc2c(-c3cnn4cc(-c5ccc(N6CCNCC6)cc5)cnc34)ccnc2c1,0.818
4,C[n+]1ccc(-c2c3nc(c(-c4cc[n+](C)cc4)c4ccc([nH]4)c(-c4cc[n+](C)cc4)c4ccc([nH]4)c(-c4cc[n+](C)cc4)c4nc2C=C4)C=C3)cc1,0.682
5,COc1c(C=O)c(O)cc2c1C(=O)c1ccccc1C2=O [Damnacanthal],1.16 ± 0.14
6,CC(C)(C)NC(=O)[C@H]1CC[C@H]2[C@@H]3CC[C@H]4NC(=O)C=C[C@]4(C)[C@H]3CC[C@]12C [Finasteride],1.04
7,O=CN1CCN(c2ccc(/C=C3\C(=O)Nc4ccccc43)cc2)CC1,1
8,C[C@@H](Oc1cc(-c2cnn(C3CCNCC3)c2)cnc1N)c1c(Cl)ccc(F)c1Cl [crizotinib],1
9,CS(=O)(=O)CCNCc1ccc(-c2ccc3ncnc(Nc4ccc(OCc5cccc(F)c5)c(Cl)c4)c3c2)o1 [lapatinib],0.545
10,CCCCC(=O)Oc1ccccc1C(=O)O [Valeryl salicylate],1
11,O=Nc1c(-c2c(O)[nH]c3ccccc23)[nH]c2ccccc12 [indirubin-3'-monoxime],0.188
12,O=C(c1cc(Cc2n[nH]c(=O)c3ccccc23)ccc1F)N1CCN(C(=O)C2CC2)CC1 [Olaparib],0.818
13,C[C@@H]1C[C@H]2O[C@@H]2/C=C\C=C\C(=O)Cc2c(Cl)c(O)cc(O)c2C(=O)O1 [radicicol],0.812
14,O=C(Nc1cccc(NC(=O)c2cccc(O)c2O)c1)c1cccc(O)c1O,1.09
15,COC(=O)Nc1nc2cc(C(=O)c3cccs3)ccc2[nH]1 [Nocodazole],1.07
16,O=[N+]([O-])c1ccc(-c2nc(-c3ccc(F)cc3)c(-c3ccncc3)[nH]2)cc1,1.2
17,Nc1cccc(-c2cc3c(Oc4cccc(O)c4)ncnc3[nH]2)c1,0.727
18,CC(C)C[C@H](NC(=O)[C@@H](O)[C@H](N)Cc1ccccc1)C(=O)O [Bestatin],0.581

row,Structure (SMILES),lysosomal-METRIQ red/green fluorescence ratio
1,O=C(CCCCCN1C(=O)c2cccc3cccc(c23)C1=O)NO [Scriptaid],0.6
2,Cc1cn(-c2cc(NC(=O)c3ccc(C)c(Nc4nccc(-c5cccnc5)n4)c3)cc(C(F)(F)F)c2)cn1 [nilotinib],1.18
3,COc1cccc(-c2cc(=O)c3ccccc3o2)c1N,0.938 and 1.07
4,C[C@]1(c2nc3c(C(N)=O)cccc3[nH]2)CCCN1 [ABT-888 (Veliparib)],1
5,O=C(Cc1ccccc1)Nc1c2c(nc3ccccc13)N(Cc1ccccc1)CC2,1.04
6,Cc1cccc(-c2nn(C(=S)Nc3ccccc3)cc2-c2ccnc3ccccc23)n1,0.955
7,CCn1cc(C(=O)O)c(=O)c2ccc(C)nc21 [Nalidixic acid],1
8,N#C/C(=C(/N)Sc1ccccc1N)c1cccc(C(O)c2ccncc2)c1 (stereo not given) [MEK inhibitor I],0.75
9,O=C1Nc2ccc(I)cc2/C1=C\c1cc(Br)c(O)c(Br)c1 [RAF1 kinase inhibitor I],1.06
10,C[n+]1cc2c3c(ccc2c2ccc4cc5c(cc4c21)OCO5)OCO3 [Sanguinarine],0.44
11,CNCCCN1c2ccccc2CCc2ccccc21 [desipramine hydrochloride],0.727
12,O=C(NCc1ccccc1)c1csc(Nc2ccncn2)n1 [Thiazovivin],0.955
13,CCN(CC)CCCCNc1ncc2cc(-c3cc(OC)cc(OC)c3)c(NC(=O)NC(C)(C)C)nc2n1,0.727
14,"COc1cccc2c1C(=O)c1c(O)c3c(c(O)c1C2=O)C[C@@](O)(C(=O)CO)C[C@@H]3O[C@H]1C[C@H](N)[C@H](O)[C@H](C)O1 [Doxorubicin, HCl]",1.03
15,COC(=O)C1=C(C)NC(C)=C(C(=O)OC)C1c1ccccc1[N+](=O)[O-] [Nifedipine],1.08
16,CC[n+]1c(/C=C/N(C)c2ccccc2)n(-c2ccccc2)c2ccc(-c3nc4ccccc4s3)cc21 [Akt Inhibitor IV],0.318
17,Cn1nnc2c(C(N)=O)ncn2c1=O [temozolomide],0.818

# 2 entries drawn at random from those above:
row,Structure (SMILES),lysosomal-METRIQ red/green fluorescence ratio
9,O=C1Nc2ccc(I)cc2/C1=C\c1cc(Br)c(O)c(Br)c1 [RAF1 kinase inhibitor I],1.06
14,O=C(Nc1cccc(NC(=O)c2cccc(O)c2O)c1)c1cccc(O)c1O,1.09
